From PubChem BioAssay AID493014 (National Center for Advancing Translational Sciences (NCATS), 2011)
Among all 340,000 compounds or so, about 170 (0.05%) were called active. The shares of active, inactive and inconclusive entries below differ from those in the screen. Calls follow the shape of the dose curve; as a rule, active = well fitted inhibition curve with a large enough effect in the signal ratio, with a control signal flat (not every such curve was filed as active); inconclusive = small, poorly fitted or top-dose-only effect, or effect the other way, or a change in a side signal; inactive = flat fitted curve, though single readings scatter; the % refers to the signal ratio. Potencies of inconclusive entries are doubtful fits and often do not repeat.
Potency is read from the fitted curve at half-maximal effect.

Assay: qHTS Assay to Find Inhibitors of Chronic Active B-Cell Receptor Signaling;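 as to activity change, negative = inhibition: plate controls were basal doxycycline-induced cells for no effect and cells given 10 µM MG132 for full effect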
Details: ABC-DLBCL IkBa-CBG/CBR reporter, luminescence ratio (green luciferase fused to IkBa over red control in TMD8 lymphoma cells), 4 h; activity change, negative = inhibition: at 46.1 µM (top of the series)
Summary of the method: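 Cell line TMD8 (human ABC DLBCL), stably expressing tet-inducible CBG68-IkBa fusion and CBR; IMDM/0.5% FBS; cpd up to 46 uM; dox induction, 4 h, 37C/5% CO2; dual luminescence; green/red ratio; MG132 control.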
With `CC1(C)CC(=O)C=C(c2ccc(F)cc2OCc2ccccc2)C1` the activity change, negative = inhibition was inconclusive: 17.3%.
For `CC(CCCCC(=O)Nc1ccc(C(F)(F)F)cc1)NCCc1cnc[nH]1` (stereo not given), the activity change, negative = inhibition was inconclusive: -15.1%.
In the case of `Cc1ccc(C(=O)C(C)N2C(=O)NC(C)(c3ccccc3)C2=O)cc1` (stereo not given), the activity change, negative = inhibition is reported as inconclusive: 0.795%.
In the case of `COc1ccc(S(=O)(=O)N(C)C)cc1NC(=O)COC(=O)C1CC1`, the activity change, negative = inhibition is reported as inconclusive: 0.144%.
With `O=C(COC(=O)c1cccc(Cl)c1Cl)NCc1cccs1` the Potency was inconclusive: 32.6 µM [falling, partial curve, poor fit].
In the case of `Cn1c(=O)c2c(nc(OCc3ccccc3)n2C)n(C)c1=O`, the Potency is reported as inconclusive: 2.06 µM [rising, full curve].
In the case of `COc1ccc(-c2noc(-c3cccs3)n2)cc1OC`, the activity change, negative = inhibition is reported as inconclusive: -0.121%.
For `Cc1ccc2c(c1)N(C(=O)NC1CCCCC1)C(C)(C)CC2C` (stereo not given), the activity change, negative = inhibition was inconclusive: -3.66%.
In the case of `COc1ccc(C2C(C(C)=O)=C(C)N=c3s/c(=C\c4ccco4)c(=O)n32)c(OC)c1` (stereo not given), the “activity change, negative = inhibition” value is reported as inactive: -0.414%.
In the case of `Cc1ccc(OCc2cc(C(=O)N(C)Cc3cnc4ccccn34)no2)cc1C`, the “activity change, negative = inhibition” value is reported as inactive: -10.8%.
For `Cc1ccc([N+](=O)[O-])cc1-c1ccc(/C=N\n2nnnc2N)o1`, the activity change, negative = inhibition was inconclusive: 2.99%.
In the case of `Cc1cccn2cc(-c3ccccc3)nc12`, the “activity change, negative = inhibition” value is reported as inactive: -3.04%.
For `CC(=O)c1ccc(NC(=O)CSc2nnc3ccc(-c4ccc(F)cc4)nn23)cc1`, the “activity change, negative = inhibition” value was inactive: -0.58%.
With `COc1cc(C2C(C#N)=C(N)Oc3n[nH]c(-c4cccnc4)c32)ccc1OCC(N)=O` (stereo not given) the activity change, negative = inhibition was inconclusive: 354%.
For `O=C(c1cccs1)N1CCCC(c2ccccc2)C1` (stereo not given), the “activity change, negative = inhibition” value was inactive: -1.17%.
In the case of `COc1ccc(CCC(=O)Nc2ncc(C)s2)cc1`, the “activity change, negative = inhibition” value is reported as inactive: 8.36%.
With `CCN(CC)c1ccc(NC(=O)CN2CCN(CC(=O)Nc3ccc(OC)cc3)CC2)cc1` the “activity change, negative = inhibition” value was inactive: -0.24%.
With `COc1ccc(CNC(=O)C2CC(=O)N(C3CCCC3)C2)cc1` (stereo not given) the activity change, negative = inhibition was inconclusive: 10.6%.
For `Cc1cc(O)c(C(c2ccccc2)N2CCC(C)CC2)c(=O)n1Cc1ccco1` (stereo not given), the Potency was inconclusive: 1.41 µM [rising, full curve].
In the case of `CC(OC(=O)c1ccc(S(=O)(=O)NCc2ccco2)cc1)C(=O)Nc1ccccc1` (stereo not given), the activity change, negative = inhibition is reported as inconclusive: -0.42%.
With `COc1cccc2c(=O)n(CC(=O)N3CCN(c4ccccc4)CC3)ccc12` the activity change, negative = inhibition was inconclusive: 16.6%.
With `Cc1c(N=C2N=C(NC(=O)c3cccs3)c3ccccc32)c(=O)n(-c2ccccc2)n1C` the activity change, negative = inhibition was inconclusive: -1.15%.
For `Cn1cc2ccc(N)cc2n1`, the Potency was inconclusive: 15.8 µM [activator, partial curve, poor fit].
With `COC(=O)[C@H](CC(C)C)NC(=O)NCCC1=CCCCC1` the activity change, negative = inhibition was inconclusive: 9.44%.
For `O=c1oc2ccccc2c(NC2CCCCC2)c1NS(=O)(=O)c1ccc(F)cc1`, the activity change, negative = inhibition was inconclusive: -16.8%.
In the case of `O=C(CCCN1C(=O)/C(=C/c2ccc3c(c2)OCO3)SC1=S)Nc1ccc(C(=O)O)cc1`, the “activity change, negative = inhibition” value is reported as inactive: 1.24%.
With `Oc1cccc(/C=N/Nc2ccc(Cl)nn2)c1` the Potency was inconclusive: 22.4 µM [falling, single point].
For `Nc1nc(NC(=O)c2ccccc2)nn1-c1ccccc1`, the Potency was inconclusive: 4.61 µM [falling, partial curve].
In the case of `O=C(O)c1ccc(CSc2nnc(SCc3ccccc3)s2)cc1`, the activity change, negative = inhibition is reported as inconclusive: -0.824%.
In the case of `CCCCCCCCCCCC(=O)NC(C(=O)O)C(O)c1ccccc1` (stereo not given), the Potency is reported as inconclusive: 12.6 µM [rising, partial curve, poor fit].
For `COc1cc(OC)c2c(-c3cccc(-c4ccc(NC(C)=O)cc4)c3)cc(=O)oc2c1`, the Potency was inconclusive: 5.17 µM [falling, full curve].
In the case of `Cc1ccc(CNC(=O)CNC(=O)c2ccco2)cc1`, the activity change, negative = inhibition is reported as inconclusive: 8.97%.
With `COc1ccccc1NC(=O)CN(C)S(=O)(=O)c1cccc2cccnc12` the “activity change, negative = inhibition” value was inactive: 0.74%.
In the case of `Cn1c(=O)c2nc(NCc3ccccc3)cnc2n(C)c1=O`, the “activity change, negative = inhibition” value is reported as inactive: 4.38%.
In the case of `CCOC(=O)C1CCN(C(=O)CSc2ccc(Br)cc2)CC1`, the Potency is reported as inconclusive: 35.5 µM [rising, single point].
With `CC(C)CCOc1ccc(C(=O)N2CCN(c3ncccn3)CC2)cc1` the activity change, negative = inhibition was inconclusive: 7.37%.
In the case of `COc1cccc(Nc2nc(NCC3CCCO3)c3ccccc3n2)c1` (stereo not given), the activity change, negative = inhibition is reported as inconclusive: 28%.
In the case of `CCOC(=O)c1[nH]c2c(c1-c1ccccc1)C(=O)CC(c1ccccc1)C2` (stereo not given), the activity change, negative = inhibition is reported as inconclusive: 8.27%.
For `CCCCC(=O)c1ccc(O)cc1`, the Potency was inconclusive: 29.1 µM [rising, single point].
For `COc1ccc([N+](=O)[O-])cc1NC(=O)C(C)OC(=O)c1cccnc1` (stereo not given), the “activity change, negative = inhibition” value was inactive: 0.115%.
In the case of `CC(=O)NC(Cc1ccc(C(C)C)cc1)C(=O)NC1CCN(C(=O)c2cccc(C)c2)CC1` (stereo not given), the activity change, negative = inhibition is reported as inconclusive: -0.346%.
With `CCOc1cc(N2CCOCC2)c(OCC)cc1NC(=O)c1c(-c2ccccc2)noc1C` the activity change, negative = inhibition was inconclusive: 1.41%.
For `O=C(NCCNc1ccc([N+](=O)[O-])cc1)c1ccccc1Br`, the activity change, negative = inhibition was inconclusive: -5.73%.
For `O=C1/C(=C/c2ccc(F)cc2)SC(=S)N1NS(=O)(=O)c1ccccc1`, the activity change, negative = inhibition was inconclusive: -17.9%.
With `O=C(NNc1cc(C(F)(F)F)ccc1Cl)c1ccc(=O)[nH]c1` the Potency was inconclusive: 10 µM [falling, partial curve, poor fit].
In the case of `COc1ccccc1NC(=O)C1=C(C)NC(SCC(=O)c2ccccc2)=C(C#N)C1c1ccco1` (stereo not given), the activity change, negative = inhibition is reported as inconclusive: 18.3%.
For `COc1cccc(N2CCN(C(=O)c3ccc(CS(=O)c4ccccc4Cl)o3)CC2)c1` (stereo not given), the Potency was inconclusive: 2.51 µM [falling, full curve, poor fit].
With `O=C(Nc1ccccc1)N1CC=C(c2ccccc2)CC1` the Potency was inconclusive: 25.9 µM [falling, single point].
With `COc1cc2c(cc1OC)CN(C(=O)/C=C/c1cccs1)CC2` the Potency was inconclusive: 11.2 µM [falling, partial curve].
With `CCC(c1nnnn1Cc1ccco1)N(CCc1ccccc1)Cc1cc2cccc(C)c2[nH]c1=O` (stereo not given) the activity change, negative = inhibition was inconclusive: -18.4%.
In the case of `Cc1cc(C)nc(NNS(=O)(=O)c2ccc(Cl)cc2)n1`, the “activity change, negative = inhibition” value is reported as inactive: -13.9%.
For `COc1ccccc1N1CCN(S(=O)(=O)c2ccccc2)CC1`, the activity change, negative = inhibition was inconclusive: -13%.
For `CCOc1ccc(NC(=O)c2ccc(NC(=O)c3ccc(CN4CCOCC4)cc3)cc2)cc1`, the activity change, negative = inhibition was inconclusive: -15.5%.
With `CCCCC(=O)NC(Nc1cc(C)ccn1)(C(=O)OCC)C(F)(F)F` (stereo not given) the activity change, negative = inhibition was inconclusive: -1.25%.
For `N=c1n(CCN2CCCCC2)c2ccccc2n1CC(=O)c1cccc([N+](=O)[O-])c1`, the activity change, negative = inhibition was inconclusive: 10.4%.
In the case of `c1cncc(-c2nc3ccccc3[nH]2)c1`, the activity change, negative = inhibition is reported as inconclusive: 9.15%.
In the case of `Nc1c2c(nc3ccccc13)CCCC2=O`, the activity change, negative = inhibition is reported as inconclusive: -3.14%.
In the case of `COc1cc2sc(-c3ccccc3OC)c(-c3ccc(OCCN4CCOCC4)cc3)c2cc1OC`, the Potency is reported as inconclusive: 20.6 µM [falling, single point].
With `Cc1nc(CSc2nnc(N)s2)cs1` the activity change, negative = inhibition was inconclusive: 2.88%.
In the case of `CCOC(=O)c1ccc(NC(=O)C(CC)CC)cc1`, the activity change, negative = inhibition is reported as inconclusive: 5.95%.
For `O=c1[nH]c(-c2ccc(F)cc2)nc2c1sc(=S)n2-c1ccccc1`, the “activity change, negative = inhibition” value was inactive: 5.75%.
For `CC(=O)COc1ccc2c3c(c(=O)oc2c1)CCCC3`, the activity change, negative = inhibition was inconclusive: -1.37%.
With `CCCCCOC(=O)c1cc(=O)[nH]c2ccccc12` the activity change, negative = inhibition was inconclusive: 0.855%.
For `CS(=O)(=O)N(CC(=O)NCc1ccncc1)c1ccc(Cl)c(Cl)c1`, the Potency was inconclusive: 11.2 µM [falling, partial curve, poor fit].
With `Cn1cc(CN2CCC(n3nccc3NC(=O)c3ccccc3Cl)CC2)c2ccccc21` the activity change, negative = inhibition was inconclusive: 0.188%.
For `N#CC1(C#N)[C@@H](C(=O)C23CC4CC(CC(C4)C2)C3)C12CCOCC2`, the activity change, negative = inhibition was inconclusive: 7.54%.
For `COC(=O)C1=C(C(=O)OC)SC2(S1)C(C(=O)OC)=C(C(=O)OC)SC1=C2c2cccc(C)c2NC1(C)C`, the activity change, negative = inhibition was inconclusive: 4.48%.
With `CCN(CC)CCN1C(=O)C(=O)/C(=C(/O)c2ccc(S(=O)(=O)N3CCOCC3)cc2)C1c1ccc(C)cc1` (stereo not given) the “activity change, negative = inhibition” value was inactive: 0.512%.
With `Clc1nc(-c2ccccn2)nc2scc(-c3ccccc3)c12` the activity change, negative = inhibition was inconclusive: -9.06%.
With `Oc1ccccc1-c1nnc(COc2ccc(Cl)cc2Cl)o1` the Potency was inconclusive: 18.4 µM [falling, single point].
For `CCc1ccc(C2=CC(c3cc(Br)ccc3F)n3ncnc3N2)cc1` (stereo not given), the Potency was inconclusive: 23.1 µM [falling, single point].
With `CC1CCCC(C)N1C(=O)Nc1cccc(Cl)c1` (stereo not given) the activity change, negative = inhibition was inconclusive: 14.5%.
In the case of `CCOc1ccc(Nc2nnc(SCc3nc4ccccc4c(=O)[nH]3)s2)cc1`, the activity change, negative = inhibition is reported as inconclusive: 9.34%.
With `CCOc1ccccc1NC(=O)CN(C)S(=O)(=O)c1ccc2[nH]c(=O)oc2c1` the activity change, negative = inhibition was inconclusive: 0.238%.
In the case of `COc1cccc(C(=O)NCCSCc2ccccc2Cl)c1`, the Potency is reported as inconclusive: 7.94 µM [falling, partial curve].
For `COc1ccc(CCNC(=O)c2cc(-c3ccc(C)cc3)nc3n[nH]c(-c4ccccc4)c23)cc1OC`, the Potency was inconclusive: 12.6 µM [falling, single point].
For `COCCn1c(C)cc(C(=O)COC(=O)c2cc3c(s2)CCC3)c1C`, the “activity change, negative = inhibition” value was inactive: 0.174%.
With `CC(=O)C1=C(Nc2ccc(C)cc2)CC(C)(O)C(C(C)=O)C1c1ccco1` (stereo not given) the Potency was inconclusive: 2.91 µM [rising, partial curve, poor fit].
In the case of `CCCCn1c(SCC(=O)/C(C#N)=C(\C)N)nc2ccccc2c1=O`, the “activity change, negative = inhibition” value is reported as inactive: -0.871%.
For `O=[N+]([O-])c1ccc(/C=N/Nc2nc(N3CCCCCC3)nc(N3CCCCCC3)n2)o1`, the Potency was inconclusive: 16.4 µM [rising, single point].
